From patent publication US8536159B2, “Organic compounds” (Intra-Cellular Therapies, Inc., priority 2008, dated 2013)
Some entries share one result that the patent states for a list of compounds.

Molecular target: PDE1B (3′,5′-cyclic-nucleotide-specific bovine brain phosphodiesterase)
Experiment: Measurement of PDE1B inhibition in vitro using IMAP phosphodiesterase assay kit
Assay type: biochemical
Conditions: IMAP fluorescence polarization, FL-GMP substrate, Ca2+/calmodulin; read-out: IC50 values (PDE1 inhibitory activity)

Compound	IC50 [nM]
CN1C(=O)c2c(nn(Cc3ccc(-c4cccc(F)n4)cc3)c2Sc2ccccc2)N2C1=N[C@@H]1CCC[C@@H]12 [Example 1, (6aR,9aS)-5,6a,7,8,9,9a-hexahydro-5-methyl-3-(phenylthio)-2-(4-(6-fluoropyridin-2-yl)benzyl)-cyclopent[4,5]imidazo[1,2-a]pyrazolo[4,3-e]pyrimidin-4(2H)-one]	< 250
CSc1c2c(nn1Cc1ccc(-c3cccc(F)n3)cc1)N1C(=N[C@@H]3CCC[C@@H]31)N(C)C2=O [Example 3, (6aR,9aS)-5,6a,7,8,9,9a-hexahydro-5-methyl-3-(methylthio)-2-(4-(6-fluoropyridin-2-yl)benzyl)-cyclopent[4,5]imidazo[1,2-a]pyrazolo[4,3-e]pyrimidin-4(2H)-one]	< 250
CN1C(=O)c2c(nn(Cc3ccc(-c4cccc(F)n4)cc3)c2[S+]([O-])c2ccccc2)N2C1=N[C@@H]1CCC[C@@H]12 (stereo partly drawn) [Example 2, (6aR,9aS)-5,6a,7,8,9,9a-hexahydro-5-methyl-3-(phenylsulfinyl)-2-(4-(6-fluoropyridin-2-yl)benzyl)-cyclopent[4,5]imidazo[1,2-a]pyrazolo[4,3-e]pyrimidin-4(2H)-one]	< 250
